Laboratory results: PubChem BioAssay AID1053209 (Peter MacCallum Cancer Centre, 2014)

Screen: 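Knock-downs that sensitise mouse osteosarcoma cells to doxorubicin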 (follow-up of hits)
Cells: mouse primary osteosarcoma cells
Knock-down reagent: single siRNA against mouse genes, 25 nM (text also states 40 nM)
Time to read-out: about 120 h (48 h before drug, then 72 h with drug)
Challenge: doxorubicin 100 nM (about IC30-40), added 48 h after transfection, for 72 h
Measured: 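ATP-based luminescent viability, with or without doxorubicin, relative to non-targeting control NT1, mean of two replicates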
Scale: viability with doxorubicin, vs NT1: higher = more viable cells under doxorubicin; viability ratio, doxorubicin over no drug: higher = less sensitisation to doxorubicin; viability without drug, vs NT1: higher = more viable cells without drug
Rule for the call: 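Counted as active (class LC dox) if viability falls to 0.7 of NT1 or below under doxorubicin but stays within 0.7 to 1.1 without drug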
Shown is one part, drawn at random, of about 1,580 reagents. 207 of all reagents (13%) were called active. 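Rows are single siRNAs; four siRNAs per gene were tested, a gene counting as confirmed only when at least two agree.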 Reagents against one gene are numbered here.

target	reagent	combined effect class	viability with doxorubicin, vs NT1	viability ratio, doxorubicin over no drug	viability without drug, vs NT1	outcome
Rpl10 (ribosomal protein L10)	1	normal viability with and without drug	0.77	0.86	0.9	inactive
Rpl10 (ribosomal protein L10)	2	low viability with and without drug	0.39	0.61	0.64	inactive
Rpl10 (ribosomal protein L10)	3	low viability with and without drug	0.53	0.83	0.64	inactive
Rpl10 (ribosomal protein L10)	4	low viability only with doxorubicin; normal without drug	0.4	0.56	0.72	active
Cse1l (chromosome segregation 1 like)	1	low viability with and without drug	0.44	0.65	0.68	inactive
Cse1l (chromosome segregation 1 like)	2	low viability with and without drug	0.17	0.47	0.36	inactive
Cse1l (chromosome segregation 1 like)	3	normal viability with and without drug	0.92	1	0.92	inactive
Cse1l (chromosome segregation 1 like)	4	low viability only with doxorubicin; normal without drug	0.68	0.77	0.88	active
Nop58 (NOP58 ribonucleoprotein)	1	normal viability with and without drug	0.85	0.9	0.94	inactive
Nop58 (NOP58 ribonucleoprotein)	2	low viability with and without drug	0.6	0.88	0.68	inactive
Nop58 (NOP58 ribonucleoprotein)	3	normal viability with and without drug	1.08	1.06	1.02	inactive
Nop58 (NOP58 ribonucleoprotein)	4	normal viability with and without drug	1.09	1.01	1.08	inactive
Rpl27a (ribosomal protein L27A)	1	low viability only with doxorubicin; normal without drug	0.43	0.51	0.84	active
Rpl27a (ribosomal protein L27A)	2	low viability with and without drug	0.51	0.8	0.64	inactive
Rpl27a (ribosomal protein L27A)	3	low viability with and without drug	0.32	0.52	0.62	inactive
Rpl27a (ribosomal protein L27A)	4	low viability only with doxorubicin; normal without drug	0.59	0.77	0.77	active
Pten (phosphatase and tensin homolog)	1	high viability only without drug	1.08	0.85	1.27	inactive
Pten (phosphatase and tensin homolog)	2	normal viability with and without drug	0.9	0.87	1.03	inactive
Pten (phosphatase and tensin homolog)	3	high viability only with doxorubicin	1.12	1.06	1.06	inactive
Pten (phosphatase and tensin homolog)	4	high viability only without drug	1.06	0.96	1.1	inactive
Or10al6 (olfactory receptor family 10 subfamily AL member 6)	1	normal viability with and without drug	0.94	0.99	0.95	inactive
Or10al6 (olfactory receptor family 10 subfamily AL member 6)	2	low viability only with doxorubicin; normal without drug	0.6	0.67	0.9	active
Or10al6 (olfactory receptor family 10 subfamily AL member 6)	3	low viability only with doxorubicin; normal without drug	0.62	0.69	0.9	active
Or10al6 (olfactory receptor family 10 subfamily AL member 6)	4	normal viability with and without drug	0.73	0.89	0.82	inactive

As entered above:
Value of Rpl27a (ribosomal protein L27A) #4 under “combined effect class”: low viability only with doxorubicin; normal without drug
Under “combined effect class”, Rpl10 (ribosomal protein L10) #4 has low viability only with doxorubicin; normal without drug
